According to the supplement of paper PMC10849652:
The other results are listed elsewhere or left out.

Sequences of proteins named here, by UniProt entry; tags and fusion partners are left off. A change or cut given only in a name is not applied to a line headed by its entry.
UniProt Q5BJD5: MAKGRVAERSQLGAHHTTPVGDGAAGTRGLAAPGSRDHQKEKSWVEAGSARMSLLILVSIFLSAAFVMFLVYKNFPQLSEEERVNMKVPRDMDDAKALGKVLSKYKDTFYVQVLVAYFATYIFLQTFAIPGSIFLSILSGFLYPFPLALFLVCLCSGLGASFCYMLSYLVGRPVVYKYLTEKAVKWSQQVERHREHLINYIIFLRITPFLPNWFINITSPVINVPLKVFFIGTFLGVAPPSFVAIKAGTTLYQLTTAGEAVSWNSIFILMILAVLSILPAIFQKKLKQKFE
UniProt Q5SWH9: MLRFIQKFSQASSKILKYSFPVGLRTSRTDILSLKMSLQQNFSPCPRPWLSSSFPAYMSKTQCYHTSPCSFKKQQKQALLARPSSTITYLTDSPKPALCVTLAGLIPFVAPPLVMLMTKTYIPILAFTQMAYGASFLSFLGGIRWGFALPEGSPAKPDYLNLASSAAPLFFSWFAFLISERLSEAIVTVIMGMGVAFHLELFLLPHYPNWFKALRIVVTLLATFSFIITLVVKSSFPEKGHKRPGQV
UniProt Q9Y320, whole entry, looked up: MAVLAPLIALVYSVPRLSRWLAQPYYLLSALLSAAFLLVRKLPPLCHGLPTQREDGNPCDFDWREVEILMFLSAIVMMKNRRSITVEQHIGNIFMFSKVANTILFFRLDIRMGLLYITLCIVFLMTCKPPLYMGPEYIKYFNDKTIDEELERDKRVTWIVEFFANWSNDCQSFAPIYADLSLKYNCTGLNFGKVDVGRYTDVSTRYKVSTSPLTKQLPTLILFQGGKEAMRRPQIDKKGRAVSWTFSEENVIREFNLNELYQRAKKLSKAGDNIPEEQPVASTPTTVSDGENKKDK
UniProt Q9BVC6: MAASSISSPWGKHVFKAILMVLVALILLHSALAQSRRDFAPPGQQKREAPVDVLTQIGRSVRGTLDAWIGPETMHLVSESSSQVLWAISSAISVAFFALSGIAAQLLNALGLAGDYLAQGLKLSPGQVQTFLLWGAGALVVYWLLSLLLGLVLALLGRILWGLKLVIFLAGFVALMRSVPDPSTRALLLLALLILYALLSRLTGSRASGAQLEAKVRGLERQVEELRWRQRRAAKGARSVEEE
UniProt Q6PL24: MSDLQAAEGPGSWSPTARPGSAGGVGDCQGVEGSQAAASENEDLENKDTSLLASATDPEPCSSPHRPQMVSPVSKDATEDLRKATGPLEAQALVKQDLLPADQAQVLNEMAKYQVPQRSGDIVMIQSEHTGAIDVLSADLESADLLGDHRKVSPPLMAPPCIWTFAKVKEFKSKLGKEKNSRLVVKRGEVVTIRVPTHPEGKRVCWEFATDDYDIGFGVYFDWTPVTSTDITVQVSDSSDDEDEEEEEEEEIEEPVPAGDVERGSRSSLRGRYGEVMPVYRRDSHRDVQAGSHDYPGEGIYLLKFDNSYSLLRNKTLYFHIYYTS
UniProt Q4ZIN3: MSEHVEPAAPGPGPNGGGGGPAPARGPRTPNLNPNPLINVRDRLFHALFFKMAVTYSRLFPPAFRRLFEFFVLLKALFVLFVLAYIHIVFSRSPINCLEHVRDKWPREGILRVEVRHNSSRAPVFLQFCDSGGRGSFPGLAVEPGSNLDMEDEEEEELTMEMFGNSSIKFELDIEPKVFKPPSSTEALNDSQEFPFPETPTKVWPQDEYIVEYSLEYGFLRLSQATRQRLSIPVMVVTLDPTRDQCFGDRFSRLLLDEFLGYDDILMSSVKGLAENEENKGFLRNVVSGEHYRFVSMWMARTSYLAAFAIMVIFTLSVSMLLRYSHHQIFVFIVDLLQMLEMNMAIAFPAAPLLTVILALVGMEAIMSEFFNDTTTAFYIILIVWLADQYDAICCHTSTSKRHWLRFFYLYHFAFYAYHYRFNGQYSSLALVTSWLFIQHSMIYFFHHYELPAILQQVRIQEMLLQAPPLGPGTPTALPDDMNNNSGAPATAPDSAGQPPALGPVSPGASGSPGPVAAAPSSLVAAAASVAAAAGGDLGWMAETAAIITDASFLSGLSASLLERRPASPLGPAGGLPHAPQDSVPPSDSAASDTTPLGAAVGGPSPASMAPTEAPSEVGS

These targets were tested with c1cn2cc(-c3ccc4cn[nH]c4c3)nc(Nc3ccc(N4CCOCC4)cc3)c2n1 [entospletinib] (assay: log2 fold change, soluble protein after heating vs DMSO (PISA); higher = thermal stabilisation; K562 cells, 10 uM, 30 min; active = over 0.2 and 3.5 SD of the protein, either way, in both replicates (recomputed)).
Method in brief: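 For each measurement, 10 μM compound was applied for 30 min to K562 cells at 2×10^6 cells/mL. Aliquots were heated for 3 min across 48°C-58°C, pooled, and extracted in PBS with 0.5% NP-40 at 4°C; the supernatant after 21,000xg for 90 min was soluble protein. This was quantified by TMTpro 16plex LC-MS/MS with channel sums equalised, and thermal stability was reported relative to control samples from duplicates, on a log2 fold-change scale.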

log2 fold change, inactive:
TMEM41B (UniProt Q5BJD5) 0.003, TMEM69 (UniProt Q5SWH9) -0.104, TMX2 (UniProt Q9Y320) -0.033, TMEM109 (UniProt Q9BVC6) -0.002, TMED8 (UniProt Q6PL24) 0.038, TMEM259 (UniProt Q4ZIN3) -0.048
